# In publication PMC10371240:
# Chains of the proteins cited; added tags and fusions are not shown.
# UniProt Q9NZJ4: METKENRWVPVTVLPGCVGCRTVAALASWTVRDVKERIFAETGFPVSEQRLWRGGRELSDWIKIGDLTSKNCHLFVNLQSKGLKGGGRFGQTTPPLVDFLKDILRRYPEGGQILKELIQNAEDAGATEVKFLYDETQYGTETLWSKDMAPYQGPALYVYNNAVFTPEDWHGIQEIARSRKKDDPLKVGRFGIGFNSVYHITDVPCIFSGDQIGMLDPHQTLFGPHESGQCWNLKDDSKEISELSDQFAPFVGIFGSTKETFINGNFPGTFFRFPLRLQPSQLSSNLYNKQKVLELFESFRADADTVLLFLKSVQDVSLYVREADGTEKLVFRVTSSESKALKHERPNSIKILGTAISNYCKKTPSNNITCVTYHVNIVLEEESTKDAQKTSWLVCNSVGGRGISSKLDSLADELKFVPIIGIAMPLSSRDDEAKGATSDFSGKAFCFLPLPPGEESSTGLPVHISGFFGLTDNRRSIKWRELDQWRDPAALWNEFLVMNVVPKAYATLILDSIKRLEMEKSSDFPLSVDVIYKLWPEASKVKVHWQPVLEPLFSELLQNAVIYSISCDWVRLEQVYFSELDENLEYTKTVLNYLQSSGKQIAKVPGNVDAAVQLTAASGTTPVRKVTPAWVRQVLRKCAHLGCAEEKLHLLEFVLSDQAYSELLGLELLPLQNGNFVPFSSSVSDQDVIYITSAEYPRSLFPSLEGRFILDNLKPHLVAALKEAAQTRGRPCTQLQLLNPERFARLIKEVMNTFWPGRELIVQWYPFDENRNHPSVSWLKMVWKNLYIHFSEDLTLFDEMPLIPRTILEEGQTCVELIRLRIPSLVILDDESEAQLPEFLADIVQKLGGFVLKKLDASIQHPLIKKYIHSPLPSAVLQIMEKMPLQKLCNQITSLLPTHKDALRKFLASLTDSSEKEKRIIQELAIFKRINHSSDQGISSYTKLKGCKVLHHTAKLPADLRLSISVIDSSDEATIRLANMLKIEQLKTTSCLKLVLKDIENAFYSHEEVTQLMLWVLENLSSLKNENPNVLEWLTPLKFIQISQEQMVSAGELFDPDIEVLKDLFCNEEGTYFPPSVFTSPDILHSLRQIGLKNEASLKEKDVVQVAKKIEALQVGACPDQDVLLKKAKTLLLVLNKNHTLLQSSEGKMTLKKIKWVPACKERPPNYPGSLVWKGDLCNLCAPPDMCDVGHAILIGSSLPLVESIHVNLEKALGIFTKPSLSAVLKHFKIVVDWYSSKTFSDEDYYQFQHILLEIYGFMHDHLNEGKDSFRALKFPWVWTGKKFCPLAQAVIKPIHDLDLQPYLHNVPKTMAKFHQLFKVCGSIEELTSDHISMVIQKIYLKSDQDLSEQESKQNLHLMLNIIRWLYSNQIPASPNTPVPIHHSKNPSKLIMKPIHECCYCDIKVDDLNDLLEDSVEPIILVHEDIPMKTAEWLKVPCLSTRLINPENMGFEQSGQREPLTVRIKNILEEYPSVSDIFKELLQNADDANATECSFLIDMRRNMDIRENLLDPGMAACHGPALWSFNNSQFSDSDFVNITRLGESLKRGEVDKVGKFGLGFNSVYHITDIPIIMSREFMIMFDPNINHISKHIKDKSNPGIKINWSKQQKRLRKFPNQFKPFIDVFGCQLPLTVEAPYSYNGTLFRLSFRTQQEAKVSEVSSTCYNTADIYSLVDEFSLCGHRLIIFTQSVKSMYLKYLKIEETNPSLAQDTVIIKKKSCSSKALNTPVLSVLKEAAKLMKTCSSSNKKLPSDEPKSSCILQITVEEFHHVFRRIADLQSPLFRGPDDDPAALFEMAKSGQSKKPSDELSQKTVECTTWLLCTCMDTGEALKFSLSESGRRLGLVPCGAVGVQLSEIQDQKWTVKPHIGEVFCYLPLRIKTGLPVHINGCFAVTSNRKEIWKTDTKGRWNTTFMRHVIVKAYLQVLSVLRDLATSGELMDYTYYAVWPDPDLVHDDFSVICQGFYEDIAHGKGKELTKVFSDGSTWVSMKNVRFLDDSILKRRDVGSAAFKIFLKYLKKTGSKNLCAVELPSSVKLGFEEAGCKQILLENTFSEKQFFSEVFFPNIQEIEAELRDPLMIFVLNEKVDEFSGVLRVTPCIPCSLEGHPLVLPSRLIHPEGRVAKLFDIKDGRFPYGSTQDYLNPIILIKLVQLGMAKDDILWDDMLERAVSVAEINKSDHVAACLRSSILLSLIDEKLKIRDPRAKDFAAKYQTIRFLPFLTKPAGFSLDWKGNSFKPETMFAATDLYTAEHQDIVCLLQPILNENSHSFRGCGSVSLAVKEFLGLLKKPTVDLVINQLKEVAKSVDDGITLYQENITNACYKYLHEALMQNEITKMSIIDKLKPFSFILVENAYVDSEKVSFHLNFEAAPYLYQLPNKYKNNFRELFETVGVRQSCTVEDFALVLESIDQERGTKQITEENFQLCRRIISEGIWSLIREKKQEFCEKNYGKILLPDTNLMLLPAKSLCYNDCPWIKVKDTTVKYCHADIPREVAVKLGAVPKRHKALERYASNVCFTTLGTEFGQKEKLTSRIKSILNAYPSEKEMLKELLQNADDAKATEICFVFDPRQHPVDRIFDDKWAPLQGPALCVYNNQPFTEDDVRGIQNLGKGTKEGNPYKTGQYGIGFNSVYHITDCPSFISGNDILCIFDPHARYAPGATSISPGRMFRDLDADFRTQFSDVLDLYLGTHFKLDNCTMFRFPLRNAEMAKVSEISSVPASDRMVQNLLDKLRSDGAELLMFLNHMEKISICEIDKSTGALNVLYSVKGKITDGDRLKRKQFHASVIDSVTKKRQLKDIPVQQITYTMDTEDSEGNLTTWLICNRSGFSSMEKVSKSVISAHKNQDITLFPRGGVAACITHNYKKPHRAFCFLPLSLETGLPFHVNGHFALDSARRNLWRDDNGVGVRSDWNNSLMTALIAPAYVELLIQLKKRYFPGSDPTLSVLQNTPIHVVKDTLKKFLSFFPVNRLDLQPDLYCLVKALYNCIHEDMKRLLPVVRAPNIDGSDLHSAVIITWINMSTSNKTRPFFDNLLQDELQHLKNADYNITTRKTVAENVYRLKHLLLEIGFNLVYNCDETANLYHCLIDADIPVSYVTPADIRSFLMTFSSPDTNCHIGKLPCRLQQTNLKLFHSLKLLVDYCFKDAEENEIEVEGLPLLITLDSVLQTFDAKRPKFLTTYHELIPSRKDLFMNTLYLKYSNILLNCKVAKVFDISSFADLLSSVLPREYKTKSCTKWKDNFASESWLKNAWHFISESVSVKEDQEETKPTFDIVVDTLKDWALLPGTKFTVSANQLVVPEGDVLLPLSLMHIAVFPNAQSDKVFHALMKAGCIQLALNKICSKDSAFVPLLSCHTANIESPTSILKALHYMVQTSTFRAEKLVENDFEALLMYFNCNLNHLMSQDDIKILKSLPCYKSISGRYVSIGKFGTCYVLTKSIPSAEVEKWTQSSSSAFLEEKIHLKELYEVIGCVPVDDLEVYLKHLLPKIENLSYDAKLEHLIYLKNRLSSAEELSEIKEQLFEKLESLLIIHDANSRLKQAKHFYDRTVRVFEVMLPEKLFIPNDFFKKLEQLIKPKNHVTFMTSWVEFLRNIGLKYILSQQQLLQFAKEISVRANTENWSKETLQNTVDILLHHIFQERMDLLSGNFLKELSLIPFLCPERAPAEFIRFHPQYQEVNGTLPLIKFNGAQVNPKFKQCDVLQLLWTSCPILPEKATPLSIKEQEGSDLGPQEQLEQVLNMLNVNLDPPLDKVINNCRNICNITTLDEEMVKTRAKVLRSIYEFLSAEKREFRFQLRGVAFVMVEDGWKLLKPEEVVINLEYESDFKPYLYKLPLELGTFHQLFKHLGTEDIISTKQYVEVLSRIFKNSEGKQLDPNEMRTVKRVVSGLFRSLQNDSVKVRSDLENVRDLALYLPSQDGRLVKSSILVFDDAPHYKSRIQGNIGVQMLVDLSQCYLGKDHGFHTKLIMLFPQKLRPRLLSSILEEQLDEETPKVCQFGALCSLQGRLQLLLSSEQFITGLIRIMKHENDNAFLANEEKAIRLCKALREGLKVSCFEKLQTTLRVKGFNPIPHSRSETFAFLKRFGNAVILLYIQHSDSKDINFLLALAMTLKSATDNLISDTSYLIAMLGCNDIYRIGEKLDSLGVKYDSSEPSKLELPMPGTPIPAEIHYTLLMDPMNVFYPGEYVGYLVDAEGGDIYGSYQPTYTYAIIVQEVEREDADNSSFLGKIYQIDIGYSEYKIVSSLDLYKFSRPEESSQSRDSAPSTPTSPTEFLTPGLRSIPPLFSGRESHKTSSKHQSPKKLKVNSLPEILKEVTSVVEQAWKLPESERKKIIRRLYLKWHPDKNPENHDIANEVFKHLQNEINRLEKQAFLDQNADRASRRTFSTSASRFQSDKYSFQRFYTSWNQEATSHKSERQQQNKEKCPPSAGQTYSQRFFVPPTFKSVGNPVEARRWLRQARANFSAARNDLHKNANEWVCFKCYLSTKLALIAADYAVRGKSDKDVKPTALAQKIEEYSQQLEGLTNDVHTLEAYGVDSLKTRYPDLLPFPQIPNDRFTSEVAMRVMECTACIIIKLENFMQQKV
# UniProt Q9Y4I1: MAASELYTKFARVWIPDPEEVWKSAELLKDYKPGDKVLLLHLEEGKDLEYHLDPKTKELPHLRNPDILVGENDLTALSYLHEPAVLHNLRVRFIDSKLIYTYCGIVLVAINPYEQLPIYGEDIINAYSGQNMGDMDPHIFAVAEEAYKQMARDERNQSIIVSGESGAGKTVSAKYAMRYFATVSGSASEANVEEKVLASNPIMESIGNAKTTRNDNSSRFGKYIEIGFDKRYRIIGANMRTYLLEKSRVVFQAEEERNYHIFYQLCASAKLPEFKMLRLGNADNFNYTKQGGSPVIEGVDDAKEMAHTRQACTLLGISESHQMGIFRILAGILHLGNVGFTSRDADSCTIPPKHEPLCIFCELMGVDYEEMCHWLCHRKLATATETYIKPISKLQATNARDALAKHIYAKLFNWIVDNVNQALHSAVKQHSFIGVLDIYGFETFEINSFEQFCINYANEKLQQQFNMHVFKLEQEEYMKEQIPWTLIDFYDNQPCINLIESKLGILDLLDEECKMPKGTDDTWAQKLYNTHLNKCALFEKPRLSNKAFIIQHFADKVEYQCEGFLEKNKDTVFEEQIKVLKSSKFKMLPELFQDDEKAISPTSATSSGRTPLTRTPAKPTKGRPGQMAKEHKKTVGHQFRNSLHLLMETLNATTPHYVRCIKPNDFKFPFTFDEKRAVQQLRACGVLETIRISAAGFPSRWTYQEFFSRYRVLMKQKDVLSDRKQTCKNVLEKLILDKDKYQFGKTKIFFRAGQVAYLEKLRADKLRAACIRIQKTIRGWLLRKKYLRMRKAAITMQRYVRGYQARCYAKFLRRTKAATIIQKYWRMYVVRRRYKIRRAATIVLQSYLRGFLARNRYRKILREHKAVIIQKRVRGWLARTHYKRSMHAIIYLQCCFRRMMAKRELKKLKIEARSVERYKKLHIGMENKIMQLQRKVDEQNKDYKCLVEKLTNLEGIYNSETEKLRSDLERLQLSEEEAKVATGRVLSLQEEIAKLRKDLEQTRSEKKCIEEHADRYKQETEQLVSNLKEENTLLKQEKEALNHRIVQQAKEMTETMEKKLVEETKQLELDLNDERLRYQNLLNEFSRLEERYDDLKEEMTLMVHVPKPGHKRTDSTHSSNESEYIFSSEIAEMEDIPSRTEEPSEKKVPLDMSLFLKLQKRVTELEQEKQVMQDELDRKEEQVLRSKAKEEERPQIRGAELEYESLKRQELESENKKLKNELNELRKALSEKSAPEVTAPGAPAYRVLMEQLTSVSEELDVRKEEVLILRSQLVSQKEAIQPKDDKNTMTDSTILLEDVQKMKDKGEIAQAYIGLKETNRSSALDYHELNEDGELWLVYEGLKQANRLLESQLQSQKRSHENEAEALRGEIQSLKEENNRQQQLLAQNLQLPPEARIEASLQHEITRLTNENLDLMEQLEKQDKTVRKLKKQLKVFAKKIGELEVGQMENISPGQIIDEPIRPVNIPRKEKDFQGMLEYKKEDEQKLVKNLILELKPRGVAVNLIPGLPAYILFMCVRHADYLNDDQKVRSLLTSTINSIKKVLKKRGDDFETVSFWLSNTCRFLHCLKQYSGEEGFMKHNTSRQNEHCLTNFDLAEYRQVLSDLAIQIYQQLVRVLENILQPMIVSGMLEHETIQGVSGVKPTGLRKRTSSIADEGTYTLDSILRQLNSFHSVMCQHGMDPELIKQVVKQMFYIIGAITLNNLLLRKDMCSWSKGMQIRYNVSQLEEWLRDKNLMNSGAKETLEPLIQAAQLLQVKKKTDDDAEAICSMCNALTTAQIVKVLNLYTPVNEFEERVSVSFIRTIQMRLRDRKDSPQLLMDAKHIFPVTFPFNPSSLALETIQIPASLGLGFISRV
# Results are given in words; binding and its absence hold for the method and conditions named. Binding seen in cells or lysates may run through a third protein. Some entries that bind do so weakly or less than the wild type.
# What was measured:
# [1] = molecular target: sacsin (human (endogenous in SH-SY5Y)) (UniProt Q9NZJ4); test: co-IP; sacsin IP (anti-sacsin antibody on Dynabeads) from SH-SY5Y lysate (5 mM EDTA, 0.1% Triton X-100 in PBS), overnight at 4°C; IgG or SACS-/- cells as control; blot with anti-myosin Va or anti-plectin antibody
# [2] = molecular target: T1, neurofilament light subunit (NFL) (human (endogenous in SH-SY5Y)) (UniProt P07196); test: co-IP; NFL IP (anti-NFL antibody on Dynabeads, IgG as control) from SH-SY5Y cells; Triton-insoluble pellet resuspended in TBS and 10% SDS, NF cytoskeletal fraction extracted by 1:4 dilution in NF extraction buffer; blot with anti-sacsin antibody
# T1 sequence: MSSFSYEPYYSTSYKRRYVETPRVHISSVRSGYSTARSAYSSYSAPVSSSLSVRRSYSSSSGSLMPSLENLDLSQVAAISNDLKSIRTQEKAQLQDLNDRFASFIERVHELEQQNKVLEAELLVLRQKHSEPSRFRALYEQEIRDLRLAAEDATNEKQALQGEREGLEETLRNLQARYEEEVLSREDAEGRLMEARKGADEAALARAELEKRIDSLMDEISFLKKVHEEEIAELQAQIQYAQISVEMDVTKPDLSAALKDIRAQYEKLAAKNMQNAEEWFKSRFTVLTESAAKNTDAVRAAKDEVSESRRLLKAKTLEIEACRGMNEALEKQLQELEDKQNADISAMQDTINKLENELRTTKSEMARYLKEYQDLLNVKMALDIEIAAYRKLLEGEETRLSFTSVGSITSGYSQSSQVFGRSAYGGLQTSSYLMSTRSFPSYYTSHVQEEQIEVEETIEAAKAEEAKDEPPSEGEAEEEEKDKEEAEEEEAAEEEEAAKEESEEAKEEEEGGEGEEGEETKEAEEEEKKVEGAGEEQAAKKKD
# [3] = molecular target: plectin (mouse cerebellum) (mouse (endogenous in cerebellum)) (UniProt Q9QXS1); test: co-IP; plectin IP (anti-plectin antibody on Dynabeads, IgG as control) from WT mouse cerebellum lysate (5 mM EDTA, 0.1% Triton X-100 in PBS), overnight at 4°C; blot with anti-sacsin antibody
binding [1],Substance,other results
binds,myosin Va (from UniProt Q9Y4I1 1-1855),
,sacsin (from UniProt Q9NZJ4 1-4579),binding [2]: binds
,sacsin (mouse cerebellum) (from UniProt Q9JLC8 1-4582),binding [3]: binds
binds,plectin (from UniProt Q15149 1-4684),
